Results from the supplement of paper PMC10338343.
± gives the standard deviation. Only a part is listed here, and it is no random draw. Many entries were measured with a wide error.

test system: MIWI (PIWIL1) piRISC loaded with piRNA #1 (30 nt); test: pre-steady-state target cleavage rate (min^-1); MIWI and MILI are mouse PIWI proteins and EfPiwi is from a freshwater sponge; tags in brackets are library labels; higher = faster piRNA-guided slicing of the target; details: guide: piRNA #1 5'p-UGAGGUAGUAGGUUGUAUAGUAUCCAGAGG; auxiliary factor: 500 nM mouse GTSF1
Procedure, shortened: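 The method was Cleave-'n-Seq, in which uncleaved targets from a transcribed, DNA-blocked target RNA library were sequenced after exposure to active affinity-purified piRISC carrying one synthetic guide, with or without GTSF1 partner protein. Reactions contained 0.1 nM library, 1 nM piRISC and, where present, 500 nM GTSF1 in HEPES–potassium acetate buffer at 33 °C for 0–8 or 0–960 min. Reads were normalised to depth and to weakly complementary targets, three trials were pooled, and k3 was capped at 0.0001 min^-1. The pre-steady-state cleavage rate came from a burst-and-steady-state fit.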

Row | Sequence | pre-steady-state target cleavage rate
1 | GGACUGGAUACUAUACAACUUACUACCUCA | 0.518 ± 0.023
2 | GCUCUGGAUAGAUUACAACCUACUACCUCA | 0.735 ± 0.048
3 | GCUCUGGAUACUAUACAACCUACUACUCUCA | 2.07 ± 0.12
4 | GGAGACCUAUGAUUACAACCUAUCUACCUCA | 0.00105 ± 0.0055
5 | GGAGACCUAUGAAUACAUCCUACUAGCUCA | 0.00023 ± 0.012
6 | GGACUGGAUACUAUACAACCUACUUCGUCA | 0.00241 ± 0.0026
7 | GCUCUGUGAUACUAUACAACCUACUACCUCA | 1.81 ± 0.11
8 | GGACUGGAUUCUAUACAACCUACUAGCUCA | 0.118 ± 0.022
9 | GGAGACCUAUGAAUUCAACCUACUACCUCA | 0.000254 ± 0.011
10 | GGACUGGAUACUAUACAACCUACAACCACA | 0.000825 ± 0.0049
11 | GGAGACCUAUGAUAUGUUGGUACUACCUGCA | 0.000355 ± 0.013
12 | GGAGACCUAUGAAUACAACCUACUACCUUA | 0.00176 ± 0.0038
13 | GGAGACCUAUGAAUUACAACCUACUACCUCA | 0.00112 ± 0.0041
14 | GGAGACCUAUGAAUACAAGCUACUUCCUCA | 0.000259 ± 0.01
15 | GGACUGGAUACUAUACAACCCUACUACCUCA | 0.000192 ± 0.022
16 | GCUCUGGUUACUAUACAACCUACUACCUCA | 2.1 ± 0.12
17 | GGUCUGGAUACUAUACUACCUACAACCUCA | 0.456 ± 0.054
18 | GGUCUGGAUACUAUACAACCUCUACCUCA | 0.00142 ± 0.0039
19 | GCUCUGGAUACUAUUCAACCUACUACCACA | 1.9 ± 0.16
20 | GGUCUGGAUACUAUAGAACCUACAACCUCA | 0.000599 ± 0.0073

Given in markdown: entries from further up.

| Row | Sequence | pre-steady-state target cleavage rate |
| --- | --- | --- |
| 3 | GCUCUGGAUACUAUACAACCUACUACUCUCA | 2.07 ± 0.12 |
| 4 | GGAGACCUAUGAUUACAACCUAUCUACCUCA | 0.00105 ± 0.0055 |
| 5 | GGAGACCUAUGAAUACAUCCUACUAGCUCA | 0.00023 ± 0.012 |

Following part.

Row | Sequence | pre-steady-state target cleavage rate
21 | GGUCUGGAUACUAUACAACCUACUUCCUGA | 0.000393 ± 0.0093
22 | GGAGACCUAUGAUAUCAACCUACUCCUCA | 0.000111 ± 0.018
23 | CCUCAGGAUACUAUACAACCUACUACCUCA | 1.98 ± 0.12
24 | GGAGACCUAUGAUAUGUACCUACUAGGACA | 0.000124 ± 0.025
25 | GGACUGGAUACUAUACAACCUACUACCUCC [g2:g27:cont:t1C] | 1.42 ± 0.088
26 | GCUCUGCAUACUAUACAACCUACUACGUCA | 1.24 ± 0.086
27 | GCUCUGGAUACUAUCAACCUACUACCUCA | 1.78 ± 0.12
28 | GGUCUGGAUACUAUACAACACUACUACCUCA | 0.00026 ± 0.011
29 | GGAGACCUAUGAAUACAACCUACCACCUCA | 0.00254 ± 0.0031
30 | CGCUCUGGAUACUAUACAACCUACUACCUCA | 2.27 ± 0.14
31 | GGAGACCUAUGUAUACAACCUAGAUCCUCA | 0.000813 ± 0.0038
32 | GGAGACCUAUGAUAUGUUGGUGACUACCUCA | 0.000323 ± 0.012
33 | GCUCUGGAUACUAUACAACUCUACUACCUCA | 0.000764 ± 0.0083
34 | GCUCUGGAUACUAUACACACCUACUACCUCA | 0.00453 ± 0.0047
35 | GGACUGGAUACUAUACAACCGUACUACCUCA | 0.000541 ± 0.014
36 | GGAGACCUAUGAAUACAACCUACUACCUGCA | 0.000983 ± 0.0064
37 | GGUCAGCAUACUAUACAACCUACUACCUCA | 1.81 ± 0.096
38 | CCUCUGGAUACUAUACAACCUCCUACCUCA | 1.32 ± 0.068
39 | GCUCUGGAUAAUAUACAACCUACUACCUCA | 2.07 ± 0.13
40 | GGAGACCUAACUAUUCUACCUACUACCUCA | 0.00207 ± 0.0058
